The nature of this data set: Surfactant screen for fluid flow in Zeonor cartridges and compatibility with LAMP.
For the compound `COCCOCCOCCOCCOCCOCCOCCOCCOCCOCCOCCOCCOCCOCCOCCOCCOCCOCCOCCOCCOCCOCCOCCOCCOCCOCCOCCOCCOCCOCCOCCOCCOCCOCCOCCOCCO` [m-PEG36-alcohol], the “outcome of screen for fluid flow and LAMP compatibility” value (“outcome of screen” for short) is given as “unsuccessful”. To `NC(N)=O` [Urea] belongs “unsuccessful”; to `CCCCCCCCCCCC[N+](C)(C)[O-]` [LDAO], “unsuccessful”; to `CCCCCCCCCCCCOP(=O)([O-])OCC[N+](C)(C)C` [Fos-choline-12], “unsuccessful”. The value for `CCCCCCCCCCO[C@@H]1O[C@H](CO)[C@@H](O)[C@H](O)[C@H]1O` [Decyl-β-D-Glucopyranoside] was “unsuccessful”; that for `C[N+](C)(C)CC(=O)O` [Betaine] was “unsuccessful”. On to `C[C@H](CCC(=O)NCCC[N+](C)(C)CCCS(=O)(=O)[O-])[C@H]1CC[C@H]2[C@@H]3[C@H](O)C[C@@H]4C[C@H](O)CC[C@]4(C)[C@H]3C[C@H](O)[C@]12C` [CHAPS], for which the “outcome of screen” value is “unsuccessful”.

In the case of `CCCCCCCCCCCCO[C@@H]1O[C@H](CO)[C@@H](O[C@H]2O[C@H](CO)[C@@H](O)[C@H](O)[C@H]2O)[C@H](O)[C@H]1O` [Dodecyl-β-D-Maltopyranoside], the “outcome of screen” value was “unsuccessful”.

Values taken from US20240360076A1, “NONIONIC SURFACTANTS” (priority 2023, published 2024).
